For one molecule, binding results are on record in paper PMC8120472.

By UniProt entry, the sequences of proteins in these tests, tags left out.
UniProt P30904: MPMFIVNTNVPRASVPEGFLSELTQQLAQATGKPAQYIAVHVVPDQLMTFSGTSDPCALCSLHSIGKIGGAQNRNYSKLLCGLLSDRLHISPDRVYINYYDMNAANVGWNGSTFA

No constants are given. Whether binding was seen depends on the method and setting. In cells and extracts the contact can be indirect. Some binding calls cover weakened binding; strength is not graded here.

The target of the assay is Macrophage migration inhibitory factor (UniProt P30904). In words: co-IP; lysates (500 μg) of rat primary joint capsule fibroblasts treated with 2 μg/mL MIF for 24 h; precleared with protein A plus G-Sepharose, incubated with anti-MIF or anti-CD74 antibody at 4 °C, immunoblot with anti-MIF or anti-CD74. (A western blot detects proteins with antibodies after separation by electrophoresis.)

B1: CD74 membrane receptor (receptor, UniProt P10247 1-280)
chain: MDDQRDLISNHEQLPILGQRARAPESNCNRGVLYTSVSVLVALLLAGQATTAYFLYQQQGRLDKLTVTSQNLQLENLRMKLPKSAKPVSPMRMATPLLMRPLSMDNMLQAPVKNVTKYGNMTQDHVMHLLTKSGPVNYPQLKGSFPENLKHLKNSMNGLDWKVFESWMKQWLLFEMSKNSLEEKQPTQTPPKVLTKCQEEVSHIPDVHPGAFRPKCDENGNYMPLQCHGSTGYCWCVFPNGTEVPHTKSRGRHNCSEPLDMEDPSSGLGVTKQDMGQMFL
Turning to B1, the binding entry is “binds”.
